# Where “and” joins values, the source holds several entries; their conditions need not be identical. Identical values can stand only once. The list shows a part of the results.
# Columns and labels:
# Test in all cases: protein microarray (ProtoArray v5.0), streptavidin-Alexa Fluor 647
# Conditions in all cases: 3'-biotin; 20 mM Tris (pH 7.5), 5 mM MgCl2, 100 mM KCl, 0.1% Tween-20, A/T-rich and random oligonucleotide blockers; temperature not stated; high values mean tight binding
# [1] = tested on: Peptidase inhibitor 16 (human)
# [2] = tested on: Peptidyl-prolyl cis-trans isomerase-like 3 (human)
# [3] = tested on: Peptidyl-tRNA hydrolase 2, mitochondrial (human)
# [4] = tested on: Phosphatase and actin regulator 4 (human)
# [5] = tested on: Phosphatidylinositol-3,4,5-trisphosphate 3-phosphatase and dual-specificity protein phosphatase PTEN (human)
# [6] = tested on: Phosphoacetylglucosamine mutase (human)
# [7] = tested on: Phosphoglucomutase-2 (human)
# [8] = tested on: Phosphoglycerate mutase 1 (human)
# [9] = tested on: Phospholipase DDHD2 (human)
# [10] = tested on: Phospholysine phosphohistidine inorganic pyrophosphate phosphatase (human)
# [11] = tested on: Plasma membrane calcium-transporting ATPase 3 (human)
# [12] = tested on: Pleckstrin homology domain-containing family J member 1 (human)
# Podoplanin (human) = tested on: Podoplanin (human)
# [13] = tested on: Polyamine-modulated factor 1 (human)
# [14] = tested on: Pre-mRNA-splicing factor ISY1 homolog (human)
# [15] = tested on: Prenylated Rab acceptor protein 1 (human)
# [16] = tested on: Probable ATP-dependent RNA helicase DDX6 (human)
# [17] = tested on: Probable ergosterol biosynthetic protein 28 (human)
# [18] = tested on: Proteasome subunit alpha type-1 (human)
# [19] = tested on: Proteasome subunit beta type-2 (human)
sequence,measurement,setting,value
GGTGACAGGGGTATGGGGAGGGG [G4-2 biotinylated (Ct1)],binding signal,[1],-0.384 z-score
same,binding signal,[2],-0.387 z-score
same,binding signal,[3],3.46 z-score
same,binding signal,[4],-0.367 z-score
same,binding signal,[5],-0.388 z-score
same,binding signal,[6],-0.394 z-score
same,binding signal,[7],-0.397 z-score
same,binding signal,[8],-0.378 z-score
same,binding signal,[9],-0.391 z-score
same,binding signal,[10],-0.392 z-score
same,binding signal,[11],-0.361 z-score
same,binding signal,[12],-0.411 z-score
same,binding signal,Podoplanin (human),-0.393 z-score and -0.389 z-score
same,binding signal,[13],-0.398 z-score
same,binding signal,[14],-0.404 z-score
same,binding signal,[15],-0.381 z-score
same,binding signal,[16],6.79 z-score
same,binding signal,[17],-0.402 z-score
same,binding signal,[18],-0.371 z-score
same,binding signal,[19],-0.396 z-score

# From publication PMC5996148
